In the data set the test system is 9L, U-373MG and B16 cells. Put plainly: Concentration-dependent cellular uptake. The settings on record: cells exposed to 1, 5 and 10 μM for 24 hours. Type of data set: cell-based. Here is the method:
The concentration-dependent uptake of compounds 4, 6, 10 and the corresponding Zn(II) complex of 10 was investigated in cells exposed to 1, 5, and 10 μM of the porphyrins for 24 hours. The concentration of intracellular-bound porphyrin was determined by chemical extraction of washed cell monolayers, followed by spectrophotometric and/or IMP-MS determinations. The uptake values for 9L and U-373MG cells were very similar and exceeded that of B16 cells.

Consider 2 substances from patent publication US7067653B2, “Porphyrin Based neuton capture agents for cancer therapy” (The Regents of the University of California, priority 2000, dated 2006).

As for “meso-tetra[3-(1-methyl-nido-carboranyl)methylphenyl]porphyrin tetrapotassium salt [Compound 10]”, the “uptake relative to the corresponding Zn(II) complexes” value is “approximately 4 times”.

On to “meso-tetra[4-(1-methyl-nido-carboranyl)methylphenyl]porphyrin tetrapotassium salt [Compound 4]”, for which the “uptake relative to the corresponding Zn(II) complexes” value is listed as “approximately 4 times”.
